Results: the supplement of paper PMC7666118
The other results are listed elsewhere or left out.

Protein sequences, listed by entry. Tags and fused reporters are not part of them. Lines headed by an entry give the natural chain unless they say otherwise; changes in a name come on top.
UniProt P57081: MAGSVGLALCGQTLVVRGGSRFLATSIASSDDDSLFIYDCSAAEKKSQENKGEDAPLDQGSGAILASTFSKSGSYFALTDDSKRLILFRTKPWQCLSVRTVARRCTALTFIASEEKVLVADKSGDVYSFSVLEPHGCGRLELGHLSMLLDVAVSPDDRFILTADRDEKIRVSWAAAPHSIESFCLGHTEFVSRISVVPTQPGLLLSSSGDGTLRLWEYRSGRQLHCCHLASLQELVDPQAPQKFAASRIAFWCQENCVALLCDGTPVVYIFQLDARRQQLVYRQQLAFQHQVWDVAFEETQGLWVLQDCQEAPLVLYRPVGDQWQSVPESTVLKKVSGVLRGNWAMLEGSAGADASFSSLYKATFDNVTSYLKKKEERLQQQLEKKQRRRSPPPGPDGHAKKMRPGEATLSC
UniProt Q7Z2W4: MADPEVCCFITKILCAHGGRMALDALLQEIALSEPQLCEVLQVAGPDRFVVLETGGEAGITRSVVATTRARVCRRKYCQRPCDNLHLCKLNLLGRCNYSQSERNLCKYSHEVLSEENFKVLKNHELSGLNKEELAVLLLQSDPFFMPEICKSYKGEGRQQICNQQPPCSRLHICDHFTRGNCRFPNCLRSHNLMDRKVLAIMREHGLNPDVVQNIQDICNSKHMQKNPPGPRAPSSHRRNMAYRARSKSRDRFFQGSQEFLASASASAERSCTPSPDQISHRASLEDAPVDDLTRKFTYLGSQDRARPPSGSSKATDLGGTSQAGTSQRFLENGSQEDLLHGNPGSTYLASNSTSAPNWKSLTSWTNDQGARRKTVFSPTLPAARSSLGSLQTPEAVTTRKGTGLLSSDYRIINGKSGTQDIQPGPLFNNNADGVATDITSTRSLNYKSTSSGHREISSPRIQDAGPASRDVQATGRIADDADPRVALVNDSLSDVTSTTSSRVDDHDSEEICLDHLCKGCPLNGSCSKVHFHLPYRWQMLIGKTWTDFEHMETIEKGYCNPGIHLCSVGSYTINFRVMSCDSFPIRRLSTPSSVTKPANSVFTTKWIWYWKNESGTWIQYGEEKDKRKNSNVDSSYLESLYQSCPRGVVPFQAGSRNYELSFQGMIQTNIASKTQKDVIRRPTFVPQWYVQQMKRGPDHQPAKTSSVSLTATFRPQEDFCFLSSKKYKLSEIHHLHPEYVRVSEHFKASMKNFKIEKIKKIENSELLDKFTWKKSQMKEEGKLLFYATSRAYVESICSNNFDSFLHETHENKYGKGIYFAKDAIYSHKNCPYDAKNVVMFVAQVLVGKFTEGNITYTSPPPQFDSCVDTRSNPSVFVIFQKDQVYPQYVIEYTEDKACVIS
UniProt P37275: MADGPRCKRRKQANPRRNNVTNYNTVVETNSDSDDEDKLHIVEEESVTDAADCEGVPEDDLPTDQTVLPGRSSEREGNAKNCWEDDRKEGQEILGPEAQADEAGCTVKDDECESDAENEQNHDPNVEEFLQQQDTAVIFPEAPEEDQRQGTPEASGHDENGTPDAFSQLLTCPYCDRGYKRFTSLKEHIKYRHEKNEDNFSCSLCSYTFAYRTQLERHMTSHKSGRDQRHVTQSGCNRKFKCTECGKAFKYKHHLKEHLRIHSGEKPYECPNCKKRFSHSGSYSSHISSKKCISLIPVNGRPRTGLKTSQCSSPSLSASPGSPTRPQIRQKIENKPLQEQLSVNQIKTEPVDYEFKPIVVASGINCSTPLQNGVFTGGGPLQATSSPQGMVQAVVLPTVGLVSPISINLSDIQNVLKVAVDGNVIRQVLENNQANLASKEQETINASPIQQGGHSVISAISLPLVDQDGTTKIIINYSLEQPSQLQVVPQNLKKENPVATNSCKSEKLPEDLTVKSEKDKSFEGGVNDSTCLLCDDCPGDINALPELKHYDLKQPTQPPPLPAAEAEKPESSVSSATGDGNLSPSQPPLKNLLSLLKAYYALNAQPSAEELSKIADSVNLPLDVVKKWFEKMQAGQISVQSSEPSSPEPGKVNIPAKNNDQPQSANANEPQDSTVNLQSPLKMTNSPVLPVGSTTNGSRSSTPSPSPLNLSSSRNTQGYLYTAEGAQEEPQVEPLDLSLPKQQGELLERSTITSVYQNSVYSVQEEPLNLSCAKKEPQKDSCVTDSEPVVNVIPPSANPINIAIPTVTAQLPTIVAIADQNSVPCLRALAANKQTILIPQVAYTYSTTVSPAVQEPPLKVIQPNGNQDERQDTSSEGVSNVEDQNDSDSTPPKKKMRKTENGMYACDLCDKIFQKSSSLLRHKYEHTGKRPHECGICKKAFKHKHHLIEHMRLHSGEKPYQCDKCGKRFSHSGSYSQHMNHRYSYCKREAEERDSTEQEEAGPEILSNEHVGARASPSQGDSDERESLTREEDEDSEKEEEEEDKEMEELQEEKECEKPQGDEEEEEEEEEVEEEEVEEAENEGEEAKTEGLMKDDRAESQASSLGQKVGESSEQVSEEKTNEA
UniProt Q14202: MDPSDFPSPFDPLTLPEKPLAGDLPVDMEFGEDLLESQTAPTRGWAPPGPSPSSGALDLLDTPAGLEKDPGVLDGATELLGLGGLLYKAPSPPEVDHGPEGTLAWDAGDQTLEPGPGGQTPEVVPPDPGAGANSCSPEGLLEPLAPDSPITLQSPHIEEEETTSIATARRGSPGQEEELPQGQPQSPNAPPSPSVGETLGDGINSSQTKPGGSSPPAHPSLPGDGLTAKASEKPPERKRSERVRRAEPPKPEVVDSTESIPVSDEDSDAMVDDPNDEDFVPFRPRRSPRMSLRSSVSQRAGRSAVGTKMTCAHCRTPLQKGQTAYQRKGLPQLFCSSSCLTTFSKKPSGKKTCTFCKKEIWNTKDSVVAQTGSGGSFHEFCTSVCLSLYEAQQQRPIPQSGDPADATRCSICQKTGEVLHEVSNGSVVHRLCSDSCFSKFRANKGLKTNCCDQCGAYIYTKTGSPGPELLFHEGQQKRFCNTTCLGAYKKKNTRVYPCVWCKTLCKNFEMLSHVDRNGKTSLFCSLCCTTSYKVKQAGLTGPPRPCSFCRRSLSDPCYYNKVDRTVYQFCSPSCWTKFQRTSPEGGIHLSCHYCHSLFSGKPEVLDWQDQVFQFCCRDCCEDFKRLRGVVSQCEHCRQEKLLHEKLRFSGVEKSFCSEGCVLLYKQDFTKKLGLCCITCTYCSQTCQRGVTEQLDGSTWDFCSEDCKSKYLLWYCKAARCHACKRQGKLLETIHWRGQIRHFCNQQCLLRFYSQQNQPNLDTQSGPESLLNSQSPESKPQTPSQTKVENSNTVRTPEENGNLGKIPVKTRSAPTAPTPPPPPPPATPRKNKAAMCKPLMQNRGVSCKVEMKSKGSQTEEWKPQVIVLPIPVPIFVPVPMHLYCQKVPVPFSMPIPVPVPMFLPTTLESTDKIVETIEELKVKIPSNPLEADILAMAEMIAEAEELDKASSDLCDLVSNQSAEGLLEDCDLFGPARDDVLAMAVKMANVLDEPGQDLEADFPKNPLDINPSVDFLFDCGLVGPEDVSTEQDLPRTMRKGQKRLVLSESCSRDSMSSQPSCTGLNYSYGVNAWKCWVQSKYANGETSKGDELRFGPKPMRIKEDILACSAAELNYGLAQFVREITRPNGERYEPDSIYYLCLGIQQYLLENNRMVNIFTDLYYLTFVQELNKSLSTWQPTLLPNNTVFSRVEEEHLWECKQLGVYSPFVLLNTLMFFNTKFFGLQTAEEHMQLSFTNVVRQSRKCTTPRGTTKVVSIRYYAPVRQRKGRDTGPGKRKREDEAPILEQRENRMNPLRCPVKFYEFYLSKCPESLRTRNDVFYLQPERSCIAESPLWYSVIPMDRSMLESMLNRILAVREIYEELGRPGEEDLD
UniProt O75191: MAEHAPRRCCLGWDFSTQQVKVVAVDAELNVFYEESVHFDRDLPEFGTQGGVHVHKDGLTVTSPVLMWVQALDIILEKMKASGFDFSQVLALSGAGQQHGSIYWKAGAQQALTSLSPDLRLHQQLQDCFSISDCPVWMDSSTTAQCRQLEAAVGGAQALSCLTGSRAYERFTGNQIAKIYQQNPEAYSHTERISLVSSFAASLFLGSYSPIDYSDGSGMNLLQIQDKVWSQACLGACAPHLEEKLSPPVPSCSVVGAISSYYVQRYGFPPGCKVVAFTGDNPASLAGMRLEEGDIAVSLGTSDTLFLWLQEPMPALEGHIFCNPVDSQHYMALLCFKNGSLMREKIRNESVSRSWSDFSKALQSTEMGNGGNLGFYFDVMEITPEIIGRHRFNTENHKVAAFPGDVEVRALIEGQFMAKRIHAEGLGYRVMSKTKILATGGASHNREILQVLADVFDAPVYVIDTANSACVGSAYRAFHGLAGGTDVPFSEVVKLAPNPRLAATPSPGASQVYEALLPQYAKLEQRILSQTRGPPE
UniProt Q8IUH4: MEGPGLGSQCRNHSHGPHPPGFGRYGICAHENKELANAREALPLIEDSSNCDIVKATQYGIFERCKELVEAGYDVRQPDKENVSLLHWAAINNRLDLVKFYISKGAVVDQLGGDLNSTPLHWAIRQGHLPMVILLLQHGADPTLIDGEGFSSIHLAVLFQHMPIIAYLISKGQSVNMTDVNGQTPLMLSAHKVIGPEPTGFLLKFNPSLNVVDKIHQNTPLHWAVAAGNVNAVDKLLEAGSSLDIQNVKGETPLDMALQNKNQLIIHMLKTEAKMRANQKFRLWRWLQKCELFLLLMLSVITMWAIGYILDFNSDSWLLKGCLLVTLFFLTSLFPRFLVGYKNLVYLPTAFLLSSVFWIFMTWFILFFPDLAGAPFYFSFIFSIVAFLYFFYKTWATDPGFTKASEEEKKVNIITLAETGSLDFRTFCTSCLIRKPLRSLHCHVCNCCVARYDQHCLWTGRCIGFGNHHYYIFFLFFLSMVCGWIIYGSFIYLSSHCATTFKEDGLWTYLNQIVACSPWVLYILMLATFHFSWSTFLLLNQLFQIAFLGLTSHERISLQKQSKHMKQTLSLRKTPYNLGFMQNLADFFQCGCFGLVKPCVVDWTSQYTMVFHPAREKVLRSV
UniProt Q9Y548: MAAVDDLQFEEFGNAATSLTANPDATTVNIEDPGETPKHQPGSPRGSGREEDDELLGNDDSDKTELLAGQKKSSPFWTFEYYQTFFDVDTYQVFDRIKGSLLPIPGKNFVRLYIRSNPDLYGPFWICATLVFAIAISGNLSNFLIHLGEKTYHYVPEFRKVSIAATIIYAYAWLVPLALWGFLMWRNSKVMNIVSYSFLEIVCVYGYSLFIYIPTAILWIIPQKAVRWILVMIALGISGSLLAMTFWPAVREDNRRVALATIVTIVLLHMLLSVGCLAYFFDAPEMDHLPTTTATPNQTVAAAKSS
UniProt Q19AV6: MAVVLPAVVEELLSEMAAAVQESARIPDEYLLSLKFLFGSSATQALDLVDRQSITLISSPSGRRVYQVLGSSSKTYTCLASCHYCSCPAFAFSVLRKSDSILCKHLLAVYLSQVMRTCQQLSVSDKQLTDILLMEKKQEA
UniProt Q8NF64: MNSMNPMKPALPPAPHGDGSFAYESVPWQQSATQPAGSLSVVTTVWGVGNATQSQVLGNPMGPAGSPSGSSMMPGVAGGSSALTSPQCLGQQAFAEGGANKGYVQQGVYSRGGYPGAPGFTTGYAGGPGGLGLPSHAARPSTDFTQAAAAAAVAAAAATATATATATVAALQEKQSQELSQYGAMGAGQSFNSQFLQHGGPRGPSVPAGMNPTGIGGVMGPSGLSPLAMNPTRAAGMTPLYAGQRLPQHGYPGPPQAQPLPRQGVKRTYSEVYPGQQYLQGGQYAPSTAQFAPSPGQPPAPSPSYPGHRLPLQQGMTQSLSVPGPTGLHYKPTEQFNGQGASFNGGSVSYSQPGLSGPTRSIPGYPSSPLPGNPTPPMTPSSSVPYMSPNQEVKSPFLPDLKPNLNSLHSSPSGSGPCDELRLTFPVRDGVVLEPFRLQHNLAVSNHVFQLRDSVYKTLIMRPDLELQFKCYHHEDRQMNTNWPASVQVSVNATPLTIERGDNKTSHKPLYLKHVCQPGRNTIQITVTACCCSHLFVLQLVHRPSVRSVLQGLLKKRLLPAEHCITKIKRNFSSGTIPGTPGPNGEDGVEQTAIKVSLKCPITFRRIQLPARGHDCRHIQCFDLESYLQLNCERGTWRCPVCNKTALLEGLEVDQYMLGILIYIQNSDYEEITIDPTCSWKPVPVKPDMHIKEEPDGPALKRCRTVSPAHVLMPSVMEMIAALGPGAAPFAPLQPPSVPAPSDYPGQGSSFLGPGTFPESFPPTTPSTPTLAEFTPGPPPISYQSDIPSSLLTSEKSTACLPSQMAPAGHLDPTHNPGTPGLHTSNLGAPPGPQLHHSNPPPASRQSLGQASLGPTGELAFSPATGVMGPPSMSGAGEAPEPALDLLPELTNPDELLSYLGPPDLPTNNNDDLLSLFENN
UniProt O95619, whole entry: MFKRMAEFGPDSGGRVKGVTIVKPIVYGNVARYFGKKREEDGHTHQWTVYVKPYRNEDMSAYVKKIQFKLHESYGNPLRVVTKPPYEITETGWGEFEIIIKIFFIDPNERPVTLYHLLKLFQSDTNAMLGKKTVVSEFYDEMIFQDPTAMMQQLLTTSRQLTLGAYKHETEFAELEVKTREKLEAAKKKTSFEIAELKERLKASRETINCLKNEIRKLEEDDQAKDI

The targets below were run with COc1ccc(Cn2ccc3cc(C)c(C(=O)NO)cc32)cc1 (assay: dose-dependent thermal stabilisation call (2D-TPP, DLPTP, 10% FDR) (binary (1 = stabilised)); higher = stabilised by the compound). Settings: system: HL-60 intact cells; concentration range 0.04-10 µM.
Procedure: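 2D thermal proteome profiling in intact HL-60 cells treated with BRD-3811 (0, 0.04, 0.29, 2, 10 uM) for 90 min at 37 C, then heated 3 min at one of 12 temperatures (42-63.9 C). Soluble protein was quantified by TMT10 MS. The value is the DLPTP call of the paper: dose-dependent thermal stabilisation over all temperatures at 10% FDR (F-test of a dose-response against a flat model); one experiment, one call per tested protein.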

Target	dose-dependent thermal stabilisation call
WDR4 (UniProt P57081)	inactive: 0
ZDHHC18 (UniProt Q9NUE0)	inactive: 0
ZC3HAV1 (UniProt Q7Z2W4)	inactive: 0
ZDHHC5 (UniProt Q9C0B5)	inactive: 0
ZEB1 (UniProt P37275)	inactive: 0
ZMYM3 (UniProt Q14202)	inactive: 0
WIPF2 (UniProt Q8TF74)	inactive: 0
ZNF22 (UniProt P17026)	inactive: 0
ZNF579 (UniProt Q8NAF0)	inactive: 0
XYLB (UniProt O75191)	inactive: 0
WHSC2 (UniProt Q9H3P2)	inactive: 0
XPC (UniProt Q01831)	inactive: 0
WDR40A (UniProt Q5T6F0)	inactive: 0
ZRANB2 (UniProt O95218)	inactive: 0
ZC3H13 (UniProt Q5T200)	inactive: 0
ZBTB24 (UniProt O43167)	inactive: 0
WDR41 (UniProt Q9HAD4)	inactive: 0
ZC3H4 (UniProt Q9UPT8)	inactive: 0
ZNF318 (UniProt Q5VUA4)	inactive: 0
ZMYND8 (UniProt Q9ULU4)	inactive: 0

Target	dose-dependent thermal stabilisation call
ZFC3H1 (UniProt O60293)	inactive: 0
WDR35 (UniProt Q9P2L0)	inactive: 0
ZMYM2 (UniProt Q9UBW7)	inactive: 0
ZYG11B (UniProt Q9C0D3)	inactive: 0
ZNF326 (UniProt Q5BKZ1)	inactive: 0
ZDHHC13 (UniProt Q8IUH4)	inactive: 0
YIPF1 (UniProt Q9Y548)	inactive: 0
ZNHIT6 (UniProt Q9NWK9)	inactive: 0
WRN (UniProt Q14191)	inactive: 0
ZWINT (UniProt O95229)	inactive: 0
YIPF3 (UniProt Q9GZM5)	inactive: 0
ZC3H10 (UniProt Q96K80)	inactive: 0
YTHDC1 (UniProt Q96MU7)	inactive: 0
ZSWIM7 (UniProt Q19AV6)	inactive: 0
ZDHHC20 (UniProt Q5W0Z9)	inactive: 0
ZNF192 (UniProt Q15776)	inactive: 0
WEE1 (UniProt P30291)	inactive: 0
ZMIZ2 (UniProt Q8NF64)	inactive: 0
ZC3H14 (UniProt Q6PJT7)	inactive: 0
YEATS4 (UniProt O95619)	inactive: 0

A stretch from further up, for reference:
Target	dose-dependent thermal stabilisation call
ZDHHC13 (UniProt Q8IUH4)	inactive: 0
YIPF1 (UniProt Q9Y548)	inactive: 0
ZNHIT6 (UniProt Q9NWK9)	inactive: 0
